At least one structure is not confirmed: it was looked up by name or label, or the drawing left a doubt.
Test system: TOP10 E. coli + bcrA
Assay: MIC determination by microtitre broth dilution method, TOP10 E. coli + bcrA
Assay type: cell-based, Escherichia coli
Settings: TOP10 E. coli + bcrA versus − bcrA; doubling dilutions
Description: MIC Determination by Microtitre Broth Dilution Method
TOP10 E. coli with or without (O) bcrA were grown to a concentration of 2×10^4 cfu/ml (bcrA+was grown in the presence of 100 μg/ml ampicillin to select for the pBAD-TOPO vector) in RPMI medium (Sigma) in the presence of 0.002% L-arabinose, as the inducer of the bcrA gene. 100 μl TOP10 E. coli±bcrA was dispensed into 96 well microtitre plate (Sigma) to give a final concentration of 1×10^4 cfu/ml. […] The plates were incubated for 24 h at 37° C. and scored by growth or no growth.

SMILES: CN(C)[C@@H]1C(O)=C(C(N)=O)C(=O)[C@@]2(O)C(O)=C3C(=O)c4c(O)cccc4[C@@](C)(O)[C@H]3C[C@@H]12 [Tetracycline]
- difference in MIC in TOP10 E. coli ± bcrA: two well difference

Source: US7037495B1, “Antimicrobial compositions” (priority 1999, dated 2006)
